Laboratory results published in paper PMC5700101.

By UniProt entry, the sequences of proteins in these tests, tags left out. Where a name states a change or a piece, a line headed by the entry shows the natural chain unless it says otherwise.
UniProt P52304: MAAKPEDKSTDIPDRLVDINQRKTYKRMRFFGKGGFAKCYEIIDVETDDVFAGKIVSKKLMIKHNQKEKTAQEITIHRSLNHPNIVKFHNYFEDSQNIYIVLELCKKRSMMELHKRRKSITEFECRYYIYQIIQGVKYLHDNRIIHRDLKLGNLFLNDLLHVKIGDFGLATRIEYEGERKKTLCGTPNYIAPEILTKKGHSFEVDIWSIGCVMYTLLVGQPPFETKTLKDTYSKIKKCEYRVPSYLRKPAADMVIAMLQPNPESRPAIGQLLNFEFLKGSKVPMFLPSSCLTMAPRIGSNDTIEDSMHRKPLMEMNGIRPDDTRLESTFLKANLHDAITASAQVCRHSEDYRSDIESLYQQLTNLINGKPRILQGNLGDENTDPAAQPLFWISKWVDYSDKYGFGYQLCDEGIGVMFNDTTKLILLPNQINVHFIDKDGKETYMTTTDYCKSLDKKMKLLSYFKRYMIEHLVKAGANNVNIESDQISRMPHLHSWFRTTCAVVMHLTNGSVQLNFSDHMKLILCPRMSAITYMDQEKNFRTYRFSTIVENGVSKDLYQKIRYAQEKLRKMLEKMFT

Target: Polo^NLS7A-GFP (Drosophila) (UniProt P52304)
Assay: co-IP; lysates of D-Mel2 cells transfected with Myc-Cdc25 and Polo-GFP (WT or NLS7A), immunoprecipitation with anti-GFP antibodies and Protein A Dynabeads at 4 °C; western blot

B1: Myc-Cdc25(String) (enzyme, UniProt P20483 1-479)
chain: MLWETIVEENNCSMDCNISNNTSSSSSINKMSGSRRARRSLELMSMDQEELSFYDDDVVPQDQQRSASPELMGLLSPEGSPQRFQIVRQPKILPAMGVSSDHTPARSFRIFNSLSSTCSMESSMDDEYMELFEMESQSQQTALGFPSGLNSLISGQIKEQPAAKSPAGLSMRRPSVRRCLSMTESNTNSTTTPPPKTPETARDCFKRPEPPASANCSPIQSKRHRCAAVEKENCPAPSPLSQVTISHPPPLRKCMSLNDAEIMSALARSENRNEPELIGDFSKAYALPLMEGRHRDLKSISSETVARLLKGEFSDKVASYRIIDCRYPYEFEGGHIEGAKNLYTTEQILDEFLTVQQTELQQQQNAESGHKRNIIIFHCEFSSERGPKMSRFLRNLDRERNTNAYPALHYPEIYLLHNGYKEFFESHVELCEPHAYRTMLDPAYNEAYRHFRAKSKSWNGDGLGGATGRLKKSRSRLML
- binding: binds

These are yes or no findings as the source states them, for the method shown. Binding seen in cells or lysates may run through a third protein. A result given as binding can be weak or reduced; the word gives no strength. Sequences can lack the tags named with a protein.
